Reference: paper PMC3364957

Amino acid sequences for entries named in this document (tags omitted). Residues count along the entry.
UniProt P05690, residues 16-1613: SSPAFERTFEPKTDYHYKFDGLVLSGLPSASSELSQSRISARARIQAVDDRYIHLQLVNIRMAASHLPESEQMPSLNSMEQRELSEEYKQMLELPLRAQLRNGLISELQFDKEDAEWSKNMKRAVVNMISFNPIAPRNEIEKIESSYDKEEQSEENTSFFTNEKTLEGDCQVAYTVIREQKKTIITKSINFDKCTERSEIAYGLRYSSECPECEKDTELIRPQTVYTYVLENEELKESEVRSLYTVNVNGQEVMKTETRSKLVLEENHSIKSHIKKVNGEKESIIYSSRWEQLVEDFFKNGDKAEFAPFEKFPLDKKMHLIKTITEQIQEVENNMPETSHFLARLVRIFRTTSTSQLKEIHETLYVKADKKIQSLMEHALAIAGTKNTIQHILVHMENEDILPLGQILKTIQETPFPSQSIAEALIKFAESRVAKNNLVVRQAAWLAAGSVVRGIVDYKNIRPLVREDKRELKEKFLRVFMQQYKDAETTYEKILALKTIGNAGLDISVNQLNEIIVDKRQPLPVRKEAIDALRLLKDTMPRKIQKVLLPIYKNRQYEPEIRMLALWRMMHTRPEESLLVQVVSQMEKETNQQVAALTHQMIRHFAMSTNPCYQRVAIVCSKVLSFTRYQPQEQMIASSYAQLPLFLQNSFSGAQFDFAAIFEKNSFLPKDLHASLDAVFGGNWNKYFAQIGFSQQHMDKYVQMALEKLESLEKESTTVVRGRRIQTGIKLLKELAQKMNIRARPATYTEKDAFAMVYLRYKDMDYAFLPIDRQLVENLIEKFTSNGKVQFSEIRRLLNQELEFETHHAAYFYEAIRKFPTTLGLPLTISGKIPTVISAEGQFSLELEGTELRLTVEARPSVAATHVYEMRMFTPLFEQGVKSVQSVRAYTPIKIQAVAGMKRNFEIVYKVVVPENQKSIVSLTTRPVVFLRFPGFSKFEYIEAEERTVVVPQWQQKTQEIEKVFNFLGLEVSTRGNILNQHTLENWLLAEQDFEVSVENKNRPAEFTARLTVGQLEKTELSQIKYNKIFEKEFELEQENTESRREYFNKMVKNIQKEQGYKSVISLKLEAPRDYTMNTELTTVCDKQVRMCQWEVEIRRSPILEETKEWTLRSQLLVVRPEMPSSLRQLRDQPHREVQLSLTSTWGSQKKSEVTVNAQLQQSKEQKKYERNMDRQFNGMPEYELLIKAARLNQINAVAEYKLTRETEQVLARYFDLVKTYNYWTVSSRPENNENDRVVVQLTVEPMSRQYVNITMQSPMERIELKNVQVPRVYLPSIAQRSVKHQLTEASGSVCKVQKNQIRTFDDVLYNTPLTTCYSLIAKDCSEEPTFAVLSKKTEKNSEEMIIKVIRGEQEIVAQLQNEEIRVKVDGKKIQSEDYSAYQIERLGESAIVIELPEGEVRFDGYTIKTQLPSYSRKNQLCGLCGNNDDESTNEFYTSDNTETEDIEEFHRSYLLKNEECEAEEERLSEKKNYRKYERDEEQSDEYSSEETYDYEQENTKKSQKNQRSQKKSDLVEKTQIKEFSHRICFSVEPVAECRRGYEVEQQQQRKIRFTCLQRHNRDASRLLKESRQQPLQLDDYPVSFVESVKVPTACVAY
UniProt P18948, residues 16-1651: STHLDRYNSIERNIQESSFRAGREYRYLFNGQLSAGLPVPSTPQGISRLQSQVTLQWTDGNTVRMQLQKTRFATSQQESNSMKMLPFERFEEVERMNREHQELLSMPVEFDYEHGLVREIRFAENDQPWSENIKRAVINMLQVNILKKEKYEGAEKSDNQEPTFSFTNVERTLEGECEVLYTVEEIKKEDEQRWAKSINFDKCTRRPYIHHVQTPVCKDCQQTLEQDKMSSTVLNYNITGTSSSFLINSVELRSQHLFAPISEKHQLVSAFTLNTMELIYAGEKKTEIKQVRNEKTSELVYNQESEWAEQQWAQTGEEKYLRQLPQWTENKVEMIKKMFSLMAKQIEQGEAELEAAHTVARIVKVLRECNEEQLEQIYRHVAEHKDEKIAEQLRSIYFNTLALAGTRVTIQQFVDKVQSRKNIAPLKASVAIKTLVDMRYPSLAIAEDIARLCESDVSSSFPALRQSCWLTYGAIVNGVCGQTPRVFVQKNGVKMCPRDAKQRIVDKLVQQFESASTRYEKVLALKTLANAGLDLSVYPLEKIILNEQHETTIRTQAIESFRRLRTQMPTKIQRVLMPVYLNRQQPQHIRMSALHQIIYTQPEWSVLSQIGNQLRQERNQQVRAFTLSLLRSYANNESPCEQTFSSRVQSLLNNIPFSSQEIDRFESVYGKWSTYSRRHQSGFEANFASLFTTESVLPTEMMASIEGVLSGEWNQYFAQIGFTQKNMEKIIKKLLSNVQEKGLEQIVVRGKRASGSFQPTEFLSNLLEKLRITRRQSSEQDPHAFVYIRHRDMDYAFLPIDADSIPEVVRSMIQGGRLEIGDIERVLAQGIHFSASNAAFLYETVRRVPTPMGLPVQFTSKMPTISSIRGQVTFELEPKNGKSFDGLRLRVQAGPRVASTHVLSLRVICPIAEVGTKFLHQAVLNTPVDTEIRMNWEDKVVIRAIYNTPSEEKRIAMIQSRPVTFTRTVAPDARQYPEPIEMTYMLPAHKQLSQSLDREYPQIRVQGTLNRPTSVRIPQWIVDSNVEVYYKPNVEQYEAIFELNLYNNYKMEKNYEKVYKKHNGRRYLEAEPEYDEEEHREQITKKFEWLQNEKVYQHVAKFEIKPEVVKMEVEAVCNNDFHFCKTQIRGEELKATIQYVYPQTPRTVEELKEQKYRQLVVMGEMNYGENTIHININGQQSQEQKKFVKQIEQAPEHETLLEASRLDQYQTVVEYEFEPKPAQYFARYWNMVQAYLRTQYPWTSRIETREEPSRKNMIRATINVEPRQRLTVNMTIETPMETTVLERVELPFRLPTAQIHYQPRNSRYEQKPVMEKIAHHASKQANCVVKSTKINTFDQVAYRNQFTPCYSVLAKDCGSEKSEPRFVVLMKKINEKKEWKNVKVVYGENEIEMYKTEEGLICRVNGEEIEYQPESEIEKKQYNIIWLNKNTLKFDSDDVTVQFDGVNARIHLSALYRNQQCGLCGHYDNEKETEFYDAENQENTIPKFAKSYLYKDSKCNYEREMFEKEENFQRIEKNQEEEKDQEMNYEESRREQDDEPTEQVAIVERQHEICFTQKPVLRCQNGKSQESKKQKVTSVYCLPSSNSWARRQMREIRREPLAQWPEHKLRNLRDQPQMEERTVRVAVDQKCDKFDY

T1: GLD-1 (C. elegans (endogenous in worm lysate)) (UniProt Q17339)
T1 sequence: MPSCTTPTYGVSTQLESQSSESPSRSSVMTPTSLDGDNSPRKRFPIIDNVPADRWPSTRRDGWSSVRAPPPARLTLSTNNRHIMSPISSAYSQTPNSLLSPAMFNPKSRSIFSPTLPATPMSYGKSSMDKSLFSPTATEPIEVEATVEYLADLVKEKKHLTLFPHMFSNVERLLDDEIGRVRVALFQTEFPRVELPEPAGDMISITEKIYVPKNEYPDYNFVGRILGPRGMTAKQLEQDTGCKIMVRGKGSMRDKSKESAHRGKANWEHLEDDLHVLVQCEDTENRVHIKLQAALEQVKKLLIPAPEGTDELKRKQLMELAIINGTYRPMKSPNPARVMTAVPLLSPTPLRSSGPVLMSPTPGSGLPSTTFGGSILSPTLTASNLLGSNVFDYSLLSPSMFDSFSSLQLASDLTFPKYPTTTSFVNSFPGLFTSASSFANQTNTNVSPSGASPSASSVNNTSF


The molecules below were run against T1, GLD-1 (C. elegans (endogenous in worm lysate)) (assay: affinity purification with mass spectrometry; anti-GLD-1 (mouse monoclonal) IPs from worm lysate compared with anti-FLAG IPs; SDS-PAGE, in-gel trypsin digest, nanoLC with LTQ Orbitrap Velos).

| Molecule | binding |
| --- | --- |
| VIT-2 (from UniProt P05690 16-1613) | no binding |
| HSP-60 (C. elegans (endogenous in worm lysate)) | no binding |
| VIT-6 (from UniProt P18948 16-1651) | no binding |
| CEY-1 (C. elegans (endogenous in worm lysate)) | binds |
| CEY-2 (C. elegans (endogenous in worm lysate)) | binds |
| CAR-1 (protein, UniProt Q9XW17 1-340) MSNQTPYIGSKISLISKLDIRYEGILYTVDTNDSTIALAKVRSFGTEKRPTANPVAARDDVYEYIIFKASDIKDLIVCDTPKMANIGGGLPYDPAIISVSSRSAPASDGAPAASAGSSRAGTPSRNSPLGQIIQNQRPGRGGYQQNFQANRGYNNYRGGFAGGYNNQRGHNNYGVPRVNHREKLKFESDFDFEKANEKFQEVLVDNLEKLNIEDKAEPEVEEKKDAAFYDKKTSFFDNISCESLEKAEGKTGRPDWKKERETNQETFGHNAVRSLNYRRGFGGRGRGGNRGYGGYNNGYQHQHQHRGGYNGGYRQNNGGYRRGGYAPRDNQGNTAAAAEQ | binds |

The remaining lines, values ahead:

| binding | Molecule |
| --- | --- |
| binds | CEY-3 (C. elegans (endogenous in worm lysate)) |
| binds | CEY-4 (C. elegans (endogenous in worm lysate)) |
| binds | PAB-1 (protein, UniProt Q9U302 1-646) MEMNVAAPAAAVAGAAAPQPGQNQTGSSYTMASLYVGDLHPDVNESILFEKFSAAGPVLSIRVCRDNATRLSLGYAYVNFQQPADAERAMDTMNFEALHGKPMRIMWSQRDPAMRRSGAGNIFIKNLDKVIDNKSIYDTFSLFGNILSCKVAIDEDGFSKGYGFVHFETEEAAQNAIQKVNGMLLAGKKVFVGKFQPRAQRNRELGETAKQFTNVYVKNFGDHYNKETLEKLFAKFGNITSCEVMTVEGKSKGFGFVAFANPEEAETAVQALHDSTIEGTDLKLHVCRAQKKSERHAELKKKHEQHKAERMQKYQGVNLYVKNLDETVDDDGLKKQFESYGNITSAKVMTDENGRSKGFGFVCFEKPEEATSAVTEMNSKMVCSKPLYVAIAQRKEDRRAQLASQYMQRLASMRMHGNVPGAAMYNPTQPGPGYYVANPMQQQRNFAGGQQMVRPGGRWGMQNQYPVQNQYMMAQGPGVYQNRMGRPQNQQGGPRGPPQQYNQVAQGGVRMQGPPRTQNPGVQQQNVPRPPQQQQQQRPAPTGPKAPPQPYQAYQQRPQGIVIGGQEPLTSAMLAAAAPQEQKQLLGERIYALIEKLYPGHKDAGKITGMMLEIDNSELIMMLQDSELFRSKVDEAASVLVSAQKQ |

These are yes or no findings as the source states them, for the method shown. In cells and extracts the contact can be indirect. A yes stands for co-enrichment or nearness to the bait. Other partners may have been found. A no says only that the protein was not detected with the bait.
